# Data reported in PubChem BioAssay AID2685 (National Center for Advancing Translational Sciences (NCATS), 2010).
# The other results are listed elsewhere or left out. These are further read-outs of the screen, such as a control signal, another cell line or another target. No call is given for them. Compounds called inactive in the main read-out are mostly missing here. The note in brackets gives the kind of curve behind each potency; many fits are weak.
# Test: qHTS Assay for Lipid Storage Modulators in Drosophila S3 Cells;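 for cell number change: cells counted by Cell Tracker Red CMTPX staining in the red channel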
# Conditions: BODIPY lipid droplet fluorescence, 18-24 h; for cell number change: measured here: cell count max response, cells fed with added oleic acid
# How it was run: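 Drosophila S3 cells loaded with oleic acid (400 uM, as added) and compounds at several concentrations; lipid droplets imaged by 488-nm laser-scanning cytometry, 500–530 nm intensity and object ratio to cell channel. Percent activity normalized to 20 uM Triacsin C.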
# [1] = measured here: cell number channel AC50, cells fed with added oleic acid
# [2] = measured here: lipid fluorescence (Fed channel) AC50, cells fed with added oleic acid
Structure (SMILES),cell number change,AC50 [1],AC50 [2]
Cc1ccc(-n2nnnc2SCc2nnc(-c3ccccc3Br)o2)cc1,-15.5%,,
COc1ccc(C)cc1S(=O)(=O)N1c2ccccc2CC1C (stereo not given),,"0.326 µM [rising, partial curve, poor fit]","2.06 µM [rising, partial curve, poor fit]"
O=C(Nc1ccon1)Nc1cc(Cl)ccc1Cl,1.16%,,"6.31 µM [rising, single point]"
Fc1ccccc1NC(=S)N1CCCCC1,16.9%,,
O=C(COc1ccccc1Cl)N1CCN(C(=O)c2ccco2)CC1,9.19%,,"29.1 µM [rising, single point]"
O=C(NCc1ccccc1)C(c1ccccc1)N(C(=O)c1csnn1)c1ccccc1 (stereo not given),-22.9%,,"29.1 µM [rising, single point]"
COc1ccccc1-c1nnc(SC(C)C(=O)Nc2ccc(C(N)=O)cc2)o1 (stereo not given),,,"29.1 µM [rising, single point]"
CCc1ccc(CN/C=C/C(=O)c2ccc(Br)cc2)cc1,-38.5%,"29.1 µM [falling, single point]","2.06 µM [falling, partial curve]"
CCCCc1nc2cc(C(=O)NCCc3cnn(C)c3)ccc2o1,-8.42%,,"6.51 µM [falling, single point]"
CCOc1cc(/C=N/Nc2ccccc2Cl)ccc1OCC(=O)O,,,"18.4 µM [rising, single point]"
CCn1cc(/C=C(\NC(=O)c2cc(OC)c(OC)c(OC)c2)C(=O)N2CCN(C)CC2)c2ccccc21,,,"0.731 µM [rising, full curve]"
CC(NC(=O)c1ccccc1F)C1CC1 (stereo not given),8.75%,,"1.03 µM [rising, single point]"
CC(=O)Nc1ccc(OC(=O)CC2SC(=O)NC2=O)cc1 (stereo not given),,,"0.82 µM [rising, full curve, poor fit]"
C=CCN=C(NC#N)SC,-31.7%,"7.31 µM [falling, partial curve, poor fit]","13 µM [falling, partial curve, poor fit]"
Cc1ccc(CNC(=O)c2ccc(Cn3cc(-c4ccc(C)cc4)nc3-c3ccncc3)cc2)cc1,8.08%,,
Cc1cc(C)nc(Sc2ccc(/C=C(\C#N)C(N)=O)o2)n1,9.66%,,"1.84 µM [rising, partial curve, poor fit]"
COCCn1cnc2c1c(=O)[nH]c(=O)n2Cc1ccccc1,,"6.51 µM [rising, single point]",
COc1cccc(NC(=O)CCC2CCN(C(=O)c3scnc3C)CC2)c1,24.3%,,
CCSc1nnc(NC(=O)c2cc(C)nc3ccccc23)s1,13.7%,,"0.82 µM [rising, full curve, poor fit]"
CC12CCC(c3nnc(SCC(=O)Nc4cccc5ccccc45)nc31)C2(C)C (stereo not given),-30.4%,"8.2 µM [falling, partial curve]",

Structure (SMILES),cell number change,AC50 [1],AC50 [2]
CCOCCCNC(=O)c1ccc2c(c1)N(Cc1ccccc1)C(=O)CS2=O (stereo not given),,,"8.2 µM [rising, partial curve]"
COc1ccc(NC(=O)c2ccc3c(c2)CCN3S(=O)(=O)c2ccccc2)cc1,-7.03%,,"14.6 µM [rising, partial curve]"
NC(=O)CC(NC(=O)Cc1ccc(Br)cc1)c1ccc(NCc2ccc(F)c(F)c2)c([N+](=O)[O-])c1 (stereo not given),14.8%,,"32.6 µM [falling, single point]"
Cc1cccc(-c2c3c(=O)n(C)c(=O)n(C)c3c3cccnn23)c1,3.93%,,"0.116 µM [rising, full curve]"
Cc1ccc(-c2cc(C(=O)Nc3cccnc3)c3ccccc3n2)o1,-15.4%,,
O=C(CCc1nc2sc3c(c2c(=O)[nH]1)CCCC3)NCCc1ccc(F)cc1,,,"22.4 µM [rising, partial curve, poor fit]"
COc1ccc2c(C)cc3nnnn3c2c1,21%,,
CC(=O)c1ccc(CCCC(=O)O)cc1,2.79%,,"9.2 µM [falling, partial curve, poor fit]"
O=C(CSc1nnc(-c2ccccc2)c(-c2ccccc2)n1)NCc1ccco1,-24.8%,,"32.6 µM [falling, partial curve, poor fit]"
O=C(COC(=O)c1ncc(Cl)c(Cl)c1Cl)NC(=O)NCc1ccccc1,-69%,"29.1 µM [falling, single point]",
O=C(CNc1cccc2ccccc12)N/N=C/c1ccccn1,18.2%,"3.66 µM [rising, partial curve, poor fit]","6.51 µM [rising, partial curve, poor fit]"
c1ccc(Oc2cccc(OCCCCN3CCCC3)c2)cc1,-6.43%,,"29.1 µM [rising, single point]"
Cc1cccc(C)c1NC(=O)N1CCC(c2nc3ccccc3o2)CC1,-72.1%,"5.8 µM [falling, partial curve]","2.59 µM [falling, full curve]"
N#Cc1cnc(NOCc2ccc(Cl)cc2)nc1,-15.5%,,"32.6 µM [falling, single point]"
COc1ccc(/C=C/C(=O)OCC(=O)Nc2ccc(Cl)c(S(=O)(=O)N(C)C)c2)cc1OC,,,"6.51 µM [rising, single point]"
COCCNC(=O)C(c1ccc(C)o1)N(C(=O)c1snc(C(N)=O)c1N)c1cccc(C)c1 (stereo not given),-6.67%,,"3.66 µM [rising, single point]"
COc1ccc(OC)c(NC(=O)c2cnn(-c3ccccc3Cl)c2NC(=O)c2ccco2)c1,82.4%,"16.4 µM [rising, partial curve]","0.651 µM [rising, single point]"
O=c1cc(O)c2sc3nc(-c4ccccc4)cc(C(F)(F)F)c3c2[nH]1,-0.905%,,"0.092 µM [falling, full curve, poor fit]"
CCOC(=O)N1CCN(C(=O)CNC(=O)Cc2ccc(Cl)cc2)CC1,-20.3%,"0.13 µM [falling, full curve, poor fit]","6.51 µM [falling, single point]"

# Some of the entries so far, tab-delimited.
Structure (SMILES)	cell number change	AC50 [1]	AC50 [2]
NC(=O)CC(NC(=O)Cc1ccc(Br)cc1)c1ccc(NCc2ccc(F)c(F)c2)c([N+](=O)[O-])c1 (stereo not given)	14.8%		32.6 µM [falling, single point]
Cc1cccc(-c2c3c(=O)n(C)c(=O)n(C)c3c3cccnn23)c1	3.93%		0.116 µM [rising, full curve]
